# Results taken from paper PMC7862700.
# The chains behind the UniProt entries cited, without tags or fusion partners. Where a name states a change or a piece, a line headed by the entry shows the natural chain unless it says otherwise.
# UniProt Q01892: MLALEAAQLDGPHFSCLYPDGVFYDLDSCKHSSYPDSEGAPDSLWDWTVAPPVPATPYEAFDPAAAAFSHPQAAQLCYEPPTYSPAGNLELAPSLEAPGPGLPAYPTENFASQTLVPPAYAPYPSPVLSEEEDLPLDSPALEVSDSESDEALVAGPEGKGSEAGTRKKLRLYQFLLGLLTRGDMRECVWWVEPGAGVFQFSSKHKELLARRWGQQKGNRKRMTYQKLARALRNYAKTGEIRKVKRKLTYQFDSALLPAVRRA
# The list shows a part of the results, in another mix than the full data. At the low end of the ranking, values are background and their order means little.
# Target: SPIB (UniProt Q01892)
# Experiment: DAPPL (digital affinity profiling via proximity ligation, sequencing)
# Details: 10 mM Tris-HCl pH 7.5, 50 mM NaCl, 1 mM DTT, 4% glycerol, room temperature, 30 min; GST-TFs on glutathione beads, 16-mer random dsDNA library, 0.1% …; high values mean tight binding; double strand, one strand shown; scale: fold enrichment (6-mer frequency, TF over GST control)
row,Sequence,binding signal
1,TGTTAT,1.31
2,CCGCAC,1.41
3,TTATAC,1.43
4,TAACAT,1.27
5,ATGATT,1.22
6,CGCTCC,1.36
7,AAATTT,1.45
8,CTACTC,1.59
9,CTAAAG,1.31
10,ATACGT,1.13
11,ATTGCT,1.3
12,CGATTC,1.24
13,GAACCA,0.985
14,ATTACG,1.18
15,CCTACA,1.17
16,TCTCCG,1.52
17,CCGGCA,1.53
18,CCCGCA,1.29
19,ACCGTC,1.09
20,ATCATG,1.14

row,Sequence,binding signal
1,TATGGC,1.18
2,TAACCT,1.31
3,CAAATA,1.19
4,CACACT,1.14
5,TTTATA,1.33
6,TTCGAA,1.12
7,CCTAAA,1.26
8,TTTCGA,1.48
9,TTTAGG,1.15
10,TGAAAA,0.978
11,ATTAGC,1.03
12,TGTAGC,1.03
13,TGTAAT,1.25
14,ATCATT,0.97
15,CTAATT,1.37
16,TGACCT,1.56
17,GCCCCT,1.21
18,CCTTTC,1.7
19,AAAAGC,1.23

# Two neighbouring records out of the list so far, quoted:
row,Sequence,binding signal
14,ATTACG,1.18
15,CCTACA,1.17
